From patent US8822378B2, “N-(tetrazol-5-yl)- and N-(triazol-5-yl)arylcarboxamides and use thereof as herbicides” (Bayer Intellectual Property GmbH, priority 2011, dated 2014)
Some entries share one result that the patent states for a list of compounds.

Experiments:
Type in all cases: in vivo
Matricara inodora [1] = assay: Pre-emergence herbicidal action against harmful plants; conditions: 320 g/ha, visual assessment after 3 weeks vs untreated controls (100% = plants died)
Veronica persica [2] = assay: as above; conditions: 320 g/ha, visual assessment after 3 weeks vs untreated controls (100% = plants died)
Abutilon theophrasti [3] = assay: as above; conditions: 320 g/ha, visual assessment after 3 weeks vs untreated controls (100% = plants died)
Amaranthus retroflexus = assay: as above; conditions: 320 g/ha, visual assessment after 3 weeks vs untreated controls (100% = plants died)
Viola tricolor [4] = assay: as above; conditions: 320 g/ha, visual assessment after 3 weeks vs untreated controls (100% = plants died)
Stellaria media [5] = assay: as above; conditions: 320 g/ha, visual assessment after 3 weeks vs untreated controls (100% = plants died)
Viola tricolor [6] = assay: Post-emergence herbicidal action against harmful plants; conditions: 80 g/ha, treated at one-leaf stage, rated visually after about 3 weeks vs untreated controls
Abutilon theophrasti [7] = assay: as above; conditions: 80 g/ha, treated at one-leaf stage, rated visually after about 3 weeks vs untreated controls
Veronica persica [8] = assay: as above; conditions: 80 g/ha, treated at one-leaf stage, rated visually after about 3 weeks vs untreated controls
Matricara inodora [9] = assay: as above; conditions: 80 g/ha, treated at one-leaf stage, rated visually after about 3 weeks vs untreated controls
Stellaria media [10] = assay: as above; conditions: 80 g/ha, treated at one-leaf stage, rated visually after about 3 weeks vs untreated controls
Pharbitis purpureum = assay: as above; conditions: 80 g/ha, treated at one-leaf stage, rated visually after about 3 weeks vs untreated controls

Measured: herbicidal activity in percent

COCCn1nnnc1NC(=O)c1ccc(C(F)(F)F)cc1Cl [Compound 1-16]
at least 90%: Matricara inodora [1] | Veronica persica [2] | Abutilon theophrasti [3] | Amaranthus retroflexus | Viola tricolor [4] | Stellaria media [5]

COCCn1nnnc1NC(=O)c1ccc(-n2cncn2)cc1Cl [Compound 1-23]
at least 90%: Viola tricolor [6] | Abutilon theophrasti [7] | Veronica persica [8] | Matricara inodora [9] | Stellaria media [10] | Pharbitis purpureum

COCCn1nnnc1NC(=O)c1ccc(C(F)(F)F)cc1[N+](=O)[O-] [Compound 1-60]
at least 90%: Matricara inodora [1] | Veronica persica [2] | Abutilon theophrasti [3] | Amaranthus retroflexus | Viola tricolor [4] | Stellaria media [5]

COCCn1nnnc1NC(=O)c1ccc(Cl)c(OCC(=O)N(C)C)c1C [Compound 1-128]
at least 90%: Viola tricolor [6] | Abutilon theophrasti [7] | Veronica persica [8] | Matricara inodora [9] | Stellaria media [10] | Pharbitis purpureum

COCCn1nnnc1NC(=O)c1ccc(Br)c(OCC(=O)N(C)C)c1C [Compound 1-157]
at least 90%: Viola tricolor [6] | Abutilon theophrasti [7] | Veronica persica [8] | Matricara inodora [9] | Stellaria media [10] | Pharbitis purpureum

CC[S+]([O-])c1c(Br)ccc(C(=O)Nc2nnnn2CCOC)c1C (stereo not drawn) [Compound 1-163]
at least 90%: Matricara inodora [1] | Veronica persica [2] | Abutilon theophrasti [3] | Amaranthus retroflexus | Viola tricolor [4] | Stellaria media [5]

COCCn1nnnc1NC(=O)c1ccc(C(F)(F)F)c(S(C)(=O)=O)c1C [Compound 1-174]
at least 90%: Matricara inodora [1] | Veronica persica [2] | Abutilon theophrasti [3] | Amaranthus retroflexus | Viola tricolor [4] | Stellaria media [5]

COCCn1nnnc1NC(=O)c1ccc(SC)c(C)c1C [Compound 1-187]
at least 90%: Matricara inodora [1] | Veronica persica [2] | Abutilon theophrasti [3] | Amaranthus retroflexus | Viola tricolor [4] | Stellaria media [5]

COCCn1nnnc1NC(=O)c1ccc(S(C)(=O)=O)c(C)c1C [Compound 1-188]
at least 90%: Viola tricolor [6] | Abutilon theophrasti [7] | Veronica persica [8] | Matricara inodora [9] | Stellaria media [10] | Pharbitis purpureum

COCCn1nnnc1NC(=O)c1ccc(S(C)(=O)=O)c(C2=NOCC2)c1C [Compound 1-191]
at least 90%: Matricara inodora [1] | Veronica persica [2] | Abutilon theophrasti [3] | Amaranthus retroflexus | Viola tricolor [4] | Stellaria media [5]

COCCNc1c(S(C)(=O)=O)ccc(C(=O)Nc2nnnn2CCOC)c1C [Compound 1-204]
at least 90%: Matricara inodora [1] | Veronica persica [2] | Abutilon theophrasti [3] | Amaranthus retroflexus | Viola tricolor [4] | Stellaria media [5]

COCCn1nnnc1NC(=O)c1ccc(S(C)(=O)=O)c(OC)c1C [Compound 1-220]
at least 90%: Viola tricolor [6] | Abutilon theophrasti [7] | Veronica persica [8] | Matricara inodora [9] | Stellaria media [10] | Pharbitis purpureum

COCCn1nnnc1NC(=O)c1ccc(S(C)(=O)=O)c(S(C)(=O)=O)c1C [Compound 1-248]
at least 90%: Matricara inodora [1] | Veronica persica [2] | Abutilon theophrasti [3] | Amaranthus retroflexus | Viola tricolor [4] | Stellaria media [5]

COCCn1nnnc1NC(=O)c1ccc(C)c(SC)c1Cl [Compound 1-343]
at least 90%: Matricara inodora [1] | Veronica persica [2] | Abutilon theophrasti [3] | Amaranthus retroflexus | Viola tricolor [4] | Stellaria media [5]

COCCn1nnnc1NC(=O)c1ccc(C)c([S+](C)[O-])c1Cl (stereo not drawn) [Compound 1-344]
at least 90%: Viola tricolor [6] | Abutilon theophrasti [7] | Veronica persica [8] | Matricara inodora [9] | Stellaria media [10] | Pharbitis purpureum

COCCn1nnnc1NC(=O)c1ccc(Cl)c(CN2CCCC2=O)c1Cl [Compound 1-350]
at least 90%: Viola tricolor [6] | Abutilon theophrasti [7] | Veronica persica [8] | Matricara inodora [9] | Stellaria media [10] | Pharbitis purpureum

COCCn1nnnc1NC(=O)c1ccc(Cl)c(OC)c1Cl [Compound 1-361]
at least 90%: Matricara inodora [1] | Veronica persica [2] | Abutilon theophrasti [3] | Amaranthus retroflexus | Viola tricolor [4] | Stellaria media [5]

CCCOc1c(S(C)(=O)=O)ccc(C(=O)Nc2nnnn2CCOC)c1Cl [Compound 1-452]
at least 90%: Matricara inodora [1] | Veronica persica [2] | Abutilon theophrasti [3] | Amaranthus retroflexus | Viola tricolor [4] | Stellaria media [5]

C#CCOc1c(S(C)(=O)=O)ccc(C(=O)Nc2nnnn2CCOC)c1Cl [Compound 1-458]
at least 90%: Matricara inodora [1] | Veronica persica [2] | Abutilon theophrasti [3] | Amaranthus retroflexus | Viola tricolor [4] | Stellaria media [5]

CCS(=O)(=O)c1ccc(C(=O)Nc2nnnn2CCOC)c(Cl)c1OCCCl [Compound 1-463]
at least 90%: Matricara inodora [1] | Veronica persica [2] | Abutilon theophrasti [3] | Amaranthus retroflexus | Viola tricolor [4] | Stellaria media [5]

COCCn1nnnc1NC(=O)c1ccc(S(C)(=O)=O)c(OCC2CC2)c1Cl [Compound 1-464]
at least 90%: Matricara inodora [1] | Veronica persica [2] | Abutilon theophrasti [3] | Amaranthus retroflexus | Viola tricolor [4] | Stellaria media [5]

CCS(=O)(=O)c1ccc(C(=O)Nc2nnnn2CCOC)c(Cl)c1OCCOC(F)(F)F [Compound 1-476]
at least 90%: Matricara inodora [1] | Veronica persica [2] | Abutilon theophrasti [3] | Amaranthus retroflexus | Viola tricolor [4] | Stellaria media [5]

COCCn1nnnc1NC(=O)c1ccc(S(C)(=O)=O)c(Cl)c1Cl [Compound 1-487]
at least 90%: Viola tricolor [6] | Abutilon theophrasti [7] | Veronica persica [8] | Matricara inodora [9] | Stellaria media [10] | Pharbitis purpureum

COCCn1nnnc1NC(=O)c1ccc(C(F)(F)F)c(SC)c1OS(C)(=O)=O [Compound 1-572]
at least 90%: Matricara inodora [1] | Veronica persica [2] | Abutilon theophrasti [3] | Amaranthus retroflexus | Viola tricolor [4] | Stellaria media [5]

Cc1c(C(=O)Nc2nnnn2CC#N)ccc(C(F)(F)F)c1S(C)(=O)=O [Compound 2-7]
at least 90%: Matricara inodora [1] | Veronica persica [2] | Abutilon theophrasti [3] | Amaranthus retroflexus | Viola tricolor [4] | Stellaria media [5]

COCCn1ncnc1NC(=O)c1ccc(C(F)(F)F)nc1Cl [Compound 3-16]
at least 90%: Matricara inodora [1] | Veronica persica [2] | Abutilon theophrasti [3] | Amaranthus retroflexus | Viola tricolor [4] | Stellaria media [5]
